Assay results from patent US6818049B1, “Environmentally preferred fluids and fluid blends” (ExxonMobil Chemical Patents Inc., priority 1998, dated 2004).

How the values were obtained:
[1] = known values from published sources, cited from earlier work
[2] = Weight average MIR (WAMIR) and ozone formation of solvent blends; conditions: for Weight % of DMC in Blend with Absolute MIR = 0.45: blend of DMC with the second fluid solvent; for Weight % of Methyl Acetate in Blend with Absolute MIR = 0.45: blend of methyl acetate with the second fluid solvent, minimum methyl acetate content

| SMILES | MIR / Absolute MIR [1] | Weight % of Methyl Acetate in Blend with Absolute MIR = 0.45 [2] | Weight % of Second Fluid Solvent in Blend with Absolute MIR = 0.45 ([2]; blend with methyl acetate) | further results |
| --- | --- | --- | --- | --- |
| CC(C)=O [Acetone] | 0.48 |  |  |  |
| CCCCCOC(C)=O [Amyl Acetate] | 1.16 |  |  |  |
| CCCCOC(C)=O [Butyl Acetate] | 1.14 |  |  | Weight % of DMC in Blend with Absolute MIR = 0.45 [2]: 65.0 Weight %; Weight % of Second Fluid Solvent in Blend with Absolute MIR = 0.45 ([2]; blend with DMC): 35.0 Weight %; MIR / Absolute MIR ([1]; listed as N-Butyl Acetate): 1.14; MIR / Absolute MIR ([1]; listed as butyl acetate): 1.00 |
| ClCCl [CH2Cl2, methylene chloride] | 0.10 |  |  |  |
| CCCCCCCCCC [Decane] | 0.93 | 59.3 Weight % | 40.7 Weight % | Weight % of DMC in Blend with Absolute MIR = 0.45 [2]: 56.4 Weight %; Weight % of Second Fluid Solvent in Blend with Absolute MIR = 0.45 ([2]; blend with DMC): 43.6 Weight % |
| CC(=O)CC(C)(C)O [Diacetone Alcohol] | 0.96 | 60.7 Weight % | 39.3 Weight % |  |
| CC(C)OC(=O)OC(C)C [Diisopropyl Carbonate] |  | 32.1 Weight % | 67.9 Weight % | Weight % of DMC in Blend with Absolute MIR = 0.45 [2]: 29.6 Weight %; Weight % of Second Fluid Solvent in Blend with Absolute MIR = 0.45 ([2]; blend with DMC): 70.4 Weight % |
| CCCCCCCCCCCC [Dodecane] | 0.72 | 45.0 Weight % | 55.0 Weight % |  |
| CC [Ethane] | 0.35 |  |  |  |
| CCOC(=O)C(C)(C)C [Ethyl Pivalate] |  | 38.5 Weight % | 61.5 Weight % | Weight % of DMC in Blend with Absolute MIR = 0.45 [2]: 35.8 Weight %; Weight % of Second Fluid Solvent in Blend with Absolute MIR = 0.45 ([2]; blend with DMC): 64.2 Weight % |
| CCOC(=O)CC [Ethyl Propionate] | 0.86 | 55.4 Weight % | 44.6 Weight % |  |
| CC(C)COC(=O)C(C)C [Isobutyl Isobutyrate] | 0.86 | 55.4 Weight % | 44.6 Weight % |  |
| CC(C)O [Isopropanol] | 0.81 |  |  | Weight % of DMC in Blend with Absolute MIR = 0.45 [2]: 49.2 Weight %; Weight % of Second Fluid Solvent in Blend with Absolute MIR = 0.45 ([2]; blend with DMC): 50.8 Weight % |
| CC(C)OC(=O)C(C)C [Isopropyl Isobutyrate] | 0.86 |  |  | Weight % of DMC in Blend with Absolute MIR = 0.45 [2]: 52.5 Weight %; Weight % of Second Fluid Solvent in Blend with Absolute MIR = 0.45 ([2]; blend with DMC): 47.5 Weight % |
| CC(=O)CC(C)C [MIBK, methyl isobutyl ketone] | 4.68 |  |  |  |
| CCCCCC(C)=O [Methyl Amyl Ketone (MAK), Methyl Amyl Ketone] | 2.65 |  |  |  |
| CCC(C)=O [Methyl Ethyl Ketone] | 1.32 |  |  | Weight % of DMC in Blend with Absolute MIR = 0.45 [2]: 70.1 Weight %; Weight % of Second Fluid Solvent in Blend with Absolute MIR = 0.45 ([2]; blend with DMC): 29.9 Weight %; MIR / Absolute MIR ([1]; listed as MEK): 1.34 |
| CCCCO [N-Butyl Alcohol] | 3.53 |  |  | MIR / Absolute MIR ([1]; listed as N-Butanol): 3.53 |
| CCCCCCCCCCCCC [Tridecane] | 0.66 | 38.9 Weight % | 61.1 Weight % |  |
| CCCCCCCCCCC [Undecane] | 0.82 | 52.9 Weight % | 47.1 Weight % |  |
| CC(=O)O [acetic acid] | 0.67 |  |  |  |
| COC(=O)CCC(=O)OC [dimethyl succinate] | 0.20 |  |  |  |
| C=C(C)C [isobutylene] | 6.81 |  |  |  |
| COC(C)=O [methyl acetate] | 0.12 |  |  |  |
| Cc1ccc(C)cc1 [p-xylene] | 4.40 |  |  |  |
| CC1COC(=O)O1 (centres unmarked) [propylene carbonate] | 0.43 |  |  |  |
| CC(=O)OC(C)(C)C [t-butyl acetate] | 0.21 |  |  |  |
| CC(C)(C)O [tertiary butanol] | 0.40 |  |  |  |

Like-named read-outs stand apart in the source and are kept apart here.
